Measurements reported in PMC2575377.

Columns and labels:
[1] = target: T1, intercellular adhesion molecule-2 (ICAM-2), full length (human) (UniProt P13598); experiment: co-IP; lysates of SK-N-AS transfectants (pIRESneo, pIRES.ICAM2, pIRES.ICAM2ΔCD) immunoprecipitated with the antibody that recognized the N-terminus of ICAM-2; immunoblot for ICAM-2, α-actinin or actin (Fig. S1, Fig. 3B)
T1 sequence: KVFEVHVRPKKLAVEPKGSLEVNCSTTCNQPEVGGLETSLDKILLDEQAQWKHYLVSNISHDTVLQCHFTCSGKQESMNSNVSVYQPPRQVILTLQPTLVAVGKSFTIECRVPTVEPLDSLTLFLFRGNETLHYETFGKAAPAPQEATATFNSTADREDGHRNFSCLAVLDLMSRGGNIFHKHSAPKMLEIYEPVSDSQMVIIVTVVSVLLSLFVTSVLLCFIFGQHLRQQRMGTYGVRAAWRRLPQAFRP

[2] = target: α-actinin (human (endogenous in SK-N-AS)); experiment: co-IP; lysate of SK-N-ASpIRES.ICAM2 cells immunoprecipitated with a monoclonal antibody to α-actinin (MAB1682) or control immunoglobulin; immunoblot for ICAM-2 and actin

binding [1]: binds
Molecule: α-actinin (human (endogenous in SK-N-AS))

binding [2]: binds
B1: intercellular adhesion molecule-2 (ICAM-2), full length (protein, UniProt P13598 25-275)
chain: T1 sequence

No constants are given. Whether binding was seen depends on the method and setting. Binding seen in cells or lysates may run through a third protein. Binding can be weak; no strength is given. Each block holds one molecule with its values, some of them ahead of it.
